From PubChem BioAssay record AID1159506 (NCATS, 2015).

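Genome-wide siRNA knockdown in TC32 Ewing sarcoma cells, comparing luciferase light from an NR0B1-promoter reporter with a CMV-promoter reporter 48 hours after transfection. Each siRNA was applied at 20 nM. A z-score of the log NR0B1-over-CMV signal, less the median of siRNAs with the same seed; more negative means a stronger specific loss of the NR0B1 reporter.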

This is part of the screen; most of the strongest results are not listed here. Sequences are the guide (antisense) strand, without overhang.

- UUGUUGUAUAUGGAUAUGC against PDZD8 : seed-corrected z-score 0.6752
- UUCAUCCUCGUACUUGUUC against KRT79 : seed-corrected z-score 0.08533
- UCAACAACCGUAGGGAUGC against EIF2B4 : seed-corrected z-score -0.1329
- UAGGUCGUAAAGUAAGUGC against PTCH1 : seed-corrected z-score 0.7283
- UUAGUUUGAAGAGUUGAUC against CC2D1B : seed-corrected z-score 0.4941
- UCCAAUGUCACGGCAUUUG against PRB4 : seed-corrected z-score 0.2983
- AAAGGUUGUAUAUGUUCUG against RNASEK : seed-corrected z-score 0.2749
- UAUCCAAUCCAAGAAAUAC against SAR1B : seed-corrected z-score -0.1134
- UUUCUUAAACUGAAGGUCA against TMEM230 : seed-corrected z-score 0.3717
- UCCAGGGAAGAUUCUGUGC against TEF : seed-corrected z-score 0.6411
- UCUUUUGAGAGGGUCUUGU against NEFH : seed-corrected z-score -0.4769
- AGUUGAAUAGCAUCUAUCC against NBPF14 : seed-corrected z-score 0.9387
- UAGGUGACCACCCUUUUGA against AK4P3 : seed-corrected z-score -0.981
- UUCGAUACAGGUUGUAAUC against THOC1 : seed-corrected z-score 0.8049
- UGUUUUUAAGGUCAAAUAC against PWP2 : seed-corrected z-score 0.6789
- UGGGUGACCCUUAAAGAGC against MB : seed-corrected z-score 0.8438
- UCAGUUUUAAUAAGUCGGC against UBP1 : seed-corrected z-score 0.9553
- UUCUCUCCCAUUGCUCUGC against EPHB4 : seed-corrected z-score 0.324
- UUCUGAAUGAGUCUCAUCC against DIDO1 : seed-corrected z-score -0.9102
- UGAAGUAACCUUUCCAGCC against SENP3 : seed-corrected z-score 0.6094
- UCGAUGUUCACUAUAUCCC against METTL13 : seed-corrected z-score 0.7459
- AUCUGGGACAUAUAUAUUC against RNF115 : seed-corrected z-score -0.5146
- UUCUAUGACAUGCUGUUGC against CCT5 : seed-corrected z-score -0.1565
- UACGUCUCCACUCUGACAG against CLK1 : seed-corrected z-score -0.06326
- UUCUGGUCCAUCCGGUUCA against UVSSA : seed-corrected z-score -0.7691
- UCAGUGAUAAGCACAGCAG against MTFR1L : seed-corrected z-score 0.9714
- UAAAGAGCUCGUACAUCUG against PPP5C : seed-corrected z-score -0.2153
- UAUUUCGUACUUGUCUUCU against ILF3 : seed-corrected z-score -0.06189
- UGAGAGUUAGGAUCCCUCG against ACTG2 : seed-corrected z-score 0.0008552
- UAAGUUUCUGAUCCAGCGC against TMEM135 : seed-corrected z-score 0.3921
- UCCAUGUAACCGAACAGGC against PPP4R4 : seed-corrected z-score 0.7114
- UAAGAUCUGGGAAUCGACG against MSH2 : seed-corrected z-score -0.01332
- UUGGUGUUGACUUAAUGUG against SYNGR3 : seed-corrected z-score 0.6787
- UCUCUUGUAGUGUAGAGGC against OR52I2 : seed-corrected z-score -0.559
- AAUCGCACCACUUCCUAGC against BTBD9 : seed-corrected z-score 0.4325
- AACUUUUAUUUGUUUGACC against TNFRSF10D : seed-corrected z-score -0.4147
- UUUCAUGAGUGAGAUGUCG against SF3A3 : seed-corrected z-score -1.467
- UUAUUGCAUUGGUUAAGGG against PM20D1 : seed-corrected z-score -1.663
- UGCAUAAUGAUCUUGGUUC against DNAJC2 : seed-corrected z-score -0.01171

Repeated from the top, 3 entries:

Result for UUGUUGUAUAUGGAUAUGC against PDZD8 was seed-corrected z-score 0.6752.
Result for UUCAUCCUCGUACUUGUUC against KRT79 was seed-corrected z-score 0.08533.
Result for UCAACAACCGUAGGGAUGC against EIF2B4 was seed-corrected z-score -0.1329.